The record followed here is the supplement of paper PMC4604168 (melanoma cell lines).

The structures appear in SMILES notation. The list shows a part of the results. Single values are uncertain, as repeats are few or missing.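 Cells were imaged in 1,536-well plates, and nuclei stained with an antibody against cleaved PARP were counted against all DNA-stained nuclei to give the apoptosis fraction. Screening doses were chosen to leave most cells alive, and resting and induced cleaved-PARP levels differ strongly between cell lines.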

Among the test systems are 501Mel; A101D; A2058; A375; C32; CBRC008; CBRC014; CBRC016; CBRC017.
Test in all cases: cleaved PARP positive nuclei fraction relative to DMSO control; melanoma cells; higher = more apoptosis
Common to all, as to conditions: library dose: low library concentration; 72 h

Turning to `C[As](C)SC[C@H](NC(=O)CC[C@H](N)C(=O)O)C(=O)NCC(=O)O` [Darinaparsin] + Cn1nnc2c(C(N)=O)ncn2c1=O [temozolomide] (first compound 0.4 µM, partner dose 2 µM), the “cleaved PARP positive nuclei fraction” value in the experiment on 501Mel came out at 56.3%; in the experiment with A101D, 45.3%; with A2058 it was 195%; with A375, 115%; in the experiment on C32, 71%; in the experiment on CBRC008 (line from a melanoma biopsy) it was 89.9%. Further, the entries for the “cleaved PARP positive nuclei fraction” value with CBRC014, in the experiment on CBRC016 (line from a melanoma biopsy) and in the experiment with CBRC017 were 102%, 173% and 98.9%, respectively.

Consider `Cn1cc(C2=C(c3cn(C4CCN(Cc5ccccn5)CC4)c4ccccc34)C(=O)NC2=O)c2ccccc21` [Enzastaurin] + Nc1ccn([C@@H]2O[C@H](CO)[C@@H](O)C2(F)F)c(=O)n1 [gemcitabine] (first compound 0.8 µM, partner dose 0.0004 µM), for which the “cleaved PARP positive nuclei fraction” value with 501Mel was 53.7%; in the experiment with A101D it was 86.6%; with A2058, 178%; with A375, 116%; in the experiment on C32, 71.4%; with CBRC008, 121%. For the same compound, the results for the “cleaved PARP positive nuclei fraction” value in the experiment with CBRC014, with CBRC016 and in the experiment with CBRC017 were 126%, 128% and 94.3%, respectively.

For `CCN(CC)CCNC(=O)c1c(C)[nH]c(/C=C2\C(=O)Nc3ccc(F)cc32)c1C` [sunitinib] + C[As](C)SC[C@H](NC(=O)CC[C@H](N)C(=O)O)C(=O)NCC(=O)O [Darinaparsin] (first compound 0.4 µM, partner dose 0.4 µM), the “cleaved PARP positive nuclei fraction” value with 501Mel worked out at 85.8%; in the experiment on A101D, 145%; in the experiment with A2058, 112%; in the experiment on A375, 120%; in the experiment on C32, 81.9%; in the experiment on CBRC008, 110%. Further, the “cleaved PARP positive nuclei fraction” value was 80.5% in the experiment on CBRC014 (line from a melanoma biopsy), 53.3% in the experiment with CBRC016 and 88.5% with CBRC017.

Regarding `C[C@]12O[C@H](C[C@]1(O)CO)n1c3ccccc3c3c4c(c5c6ccccc6n2c5c31)CNC4=O` [Lestaurtinib] + CC(=O)O[C@@]12CO[C@@H]1C[C@H](O)[C@@]1(C)C(=O)[C@H](O)C3=C(C)[C@@H](OC(=O)[C@H](O)[C@@H](NC(=O)OC(C)(C)C)c4ccccc4)C[C@@](O)([C@@H](OC(=O)c4ccccc4)[C@H]21)C3(C)C [Docetaxel] (first compound 0.004 µM, partner dose 0.0001 µM), the “cleaved PARP positive nuclei fraction” value in the experiment on 501Mel came to 262%; in the experiment with A101D, 54.8%; in the experiment on A2058, 1200%; in the experiment with A375, 619%; in the experiment with C32 it was 71.2%; with CBRC008, 451%. The “cleaved PARP positive nuclei fraction” value worked out at 112% in the experiment on CBRC014, 267% with CBRC016 and 182% with CBRC017.

On to `Cn1cnc2c(F)c(Nc3ccc(Br)cc3Cl)c(C(=O)NOCCO)cc21` [selumetinib] + N.N.[Cl][Pt][Cl] [cisplatin] (first compound 0.015 µM, partner dose 1.6 µM), for which the “cleaved PARP positive nuclei fraction” value in the experiment on 501Mel came out at 449%; in the experiment with A101D it was 126%; in the experiment with A2058, 139%; with A375, 199%; with C32 it was 44.7%; in the experiment on CBRC008 it was 185%. In addition, the “cleaved PARP positive nuclei fraction” value stood at 94.2% in the experiment with CBRC014, 159% in the experiment with CBRC016 and 117% in the experiment with CBRC017.

As for `CNC(=O)c1cc(Oc2ccc(NC(=O)Nc3ccc(Cl)c(C(F)(F)F)c3)cc2)ccn1` [sorafenib] + C[As](C)SC[C@H](NC(=O)CC[C@H](N)C(=O)O)C(=O)NCC(=O)O [Darinaparsin] (first compound 0.4 µM, partner dose 0.4 µM), the “cleaved PARP positive nuclei fraction” value in the experiment with 501Mel came to 204%; with A101D, 97.4%; in the experiment with A2058 it was 123%; in the experiment with A375, 108%; in the experiment on C32, 176%; in the experiment with CBRC008, 106%. Also, the “cleaved PARP positive nuclei fraction” value with CBRC014 worked out at 89.4%; with CBRC016, 84.6%; in the experiment on CBRC017 (line from a melanoma biopsy), 127%.

As to `C[C@]12O[C@H](C[C@]1(O)CO)n1c3ccccc3c3c4c(c5c6ccccc6n2c5c31)CNC4=O` [Lestaurtinib] + Nc1cccc2c1CN(C1CCC(=O)NC1=O)C2=O [lenalidomide] (first compound 0.004 µM, partner dose 1 µM), the “cleaved PARP positive nuclei fraction” value came out at 63.6% in the experiment on 501Mel; 40.6% with A101D; 179% with A2058; 95.7% in the experiment with A375; 69.2% in the experiment on C32; 140% in the experiment on CBRC008. In addition, the “cleaved PARP positive nuclei fraction” value in the experiment on CBRC014 is 88.2%; in the experiment on CBRC016, 63.9%; with CBRC017 it was 108%.

For the compound `Cn1cc(C2=C(c3cn(C4CCN(Cc5ccccn5)CC4)c4ccccc34)C(=O)NC2=O)c2ccccc21` [Enzastaurin] + C[C@]1(O)C[C@@H](c2nc(-c3ccc4ccc(-c5ccccc5)nc4c3)c3c(N)nccn32)C1 [OSI906] (first compound 0.8 µM, partner dose 0.4 µM), the “cleaved PARP positive nuclei fraction” value with 501Mel came out at 83.2%; with A101D it was 272%; with A2058, 82.5%; in the experiment with A375, 67.7%; with C32, 165%; in the experiment with CBRC008, 48.8%. Further, the figures for the “cleaved PARP positive nuclei fraction” value in the experiment with CBRC014, in the experiment with CBRC016 and with CBRC017 were 82.1%, 107% and 100%, respectively.

As to `C[C@]12O[C@H](C[C@]1(O)CO)n1c3ccccc3c3c4c(c5c6ccccc6n2c5c31)CNC4=O` [Lestaurtinib] + O=C(O)c1ccc2c(c1)nc(Nc1cccc(Cl)c1)c1ccncc12 [CX4945] (first compound 0.004 µM, partner dose 0.4 µM), the “cleaved PARP positive nuclei fraction” value turned out to be 66.5% in the experiment with 501Mel; 99.1% with A101D; 127% in the experiment with A2058; 51.3% with A375; 76.6% in the experiment on C32; 98.6% in the experiment with CBRC008. The “cleaved PARP positive nuclei fraction” value in the experiment on CBRC014 was 107%; in the experiment on CBRC016, 140%; in the experiment on CBRC017, 116%.

For the compound `O=C(/C=C/c1cccnc1)NCCCCC1CCN(C(=O)c2ccccc2)CC1` + N.N.[Cl][Pt][Cl] [cisplatin] (first compound 0.01 µM, partner dose 1.6 µM), the “cleaved PARP positive nuclei fraction” value in the experiment on 501Mel is 104%; with A101D, 47%; with A2058, 68.5%; with A375, 191%; in the experiment on C32 it was 67.7%; in the experiment on CBRC008 it was 2320%. Moreover, the “cleaved PARP positive nuclei fraction” value with CBRC014 stood at 166%; with CBRC016, 1690%; in the experiment on CBRC017, 1040%.

Consider `NC(=O)c1ccc(N(C(N)=O)c2c(F)cccc2F)nc1-c1ccc(F)cc1F` + N.N.[Cl][Pt][Cl] [cisplatin] (first compound 0.4 µM, partner dose 1.6 µM), for which the “cleaved PARP positive nuclei fraction” value came to 121% with 501Mel; 190% in the experiment on A101D; 105% in the experiment on A2058; 50.8% with A375; 61.6% with C32; 156% in the experiment with CBRC008. Also, the “cleaved PARP positive nuclei fraction” value in the experiment with CBRC014 came to 112%; in the experiment on CBRC016, 402%; in the experiment on CBRC017, 109%.

Consider `Cn1cc(C2=C(c3cn(C4CCN(Cc5ccccn5)CC4)c4ccccc34)C(=O)NC2=O)c2ccccc21` [Enzastaurin] + C[As](C)SC[C@H](NC(=O)CC[C@H](N)C(=O)O)C(=O)NCC(=O)O [Darinaparsin] (first compound 0.8 µM, partner dose 0.4 µM), for which the “cleaved PARP positive nuclei fraction” value with 501Mel is 103%; in the experiment on A101D, 60.3%; in the experiment with A2058, 144%; in the experiment on A375 it was 152%; with C32, 66%; in the experiment on CBRC008, 192%. The “cleaved PARP positive nuclei fraction” value came out at 86.6% in the experiment with CBRC014, 67.8% in the experiment with CBRC016 and 106% in the experiment with CBRC017.

On to `CCCCCCCCCCCCCCCCCCOP(=O)([O-])OC1CC[N+](C)(C)CC1` [Perifosine] + Cn1cc(C2=C(c3cn(C4CCN(Cc5ccccn5)CC4)c4ccccc34)C(=O)NC2=O)c2ccccc21 [Enzastaurin] (first compound 0.4 µM, partner dose 0.8 µM), for which the “cleaved PARP positive nuclei fraction” value in the experiment on 501Mel came out at 187%; in the experiment with A101D, 46%; in the experiment on A2058 it was 25.1%; with A375, 54.7%; in the experiment on C32, 67.7%; in the experiment on CBRC008, 61.4%. Also, the “cleaved PARP positive nuclei fraction” value in the experiment on CBRC014 was found to be 106%; with CBRC016, 93.2%; with CBRC017, 76.3%.
